Our source for the binding values is article PMC4270787 (PLoS ONE, 2014).

The chains behind the UniProt entries cited, without tags or fusion partners. Where a name states a change or a piece, a line headed by the entry shows the natural chain unless it says otherwise. Residues count along the entry.
UniProt P36544, residues 23-502: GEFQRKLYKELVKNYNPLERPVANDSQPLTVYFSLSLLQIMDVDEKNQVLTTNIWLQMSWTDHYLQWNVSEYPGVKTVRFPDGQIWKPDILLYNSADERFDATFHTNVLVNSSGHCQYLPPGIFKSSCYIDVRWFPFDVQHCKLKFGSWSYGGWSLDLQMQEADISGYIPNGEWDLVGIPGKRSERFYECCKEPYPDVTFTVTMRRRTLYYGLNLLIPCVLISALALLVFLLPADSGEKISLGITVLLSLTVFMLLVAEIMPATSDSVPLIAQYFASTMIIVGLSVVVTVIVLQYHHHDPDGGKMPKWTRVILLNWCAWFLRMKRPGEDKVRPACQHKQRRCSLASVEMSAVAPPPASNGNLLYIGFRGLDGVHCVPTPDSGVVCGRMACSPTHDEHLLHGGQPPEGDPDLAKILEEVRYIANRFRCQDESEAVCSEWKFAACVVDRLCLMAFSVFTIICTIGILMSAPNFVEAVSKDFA
UniProt P02710: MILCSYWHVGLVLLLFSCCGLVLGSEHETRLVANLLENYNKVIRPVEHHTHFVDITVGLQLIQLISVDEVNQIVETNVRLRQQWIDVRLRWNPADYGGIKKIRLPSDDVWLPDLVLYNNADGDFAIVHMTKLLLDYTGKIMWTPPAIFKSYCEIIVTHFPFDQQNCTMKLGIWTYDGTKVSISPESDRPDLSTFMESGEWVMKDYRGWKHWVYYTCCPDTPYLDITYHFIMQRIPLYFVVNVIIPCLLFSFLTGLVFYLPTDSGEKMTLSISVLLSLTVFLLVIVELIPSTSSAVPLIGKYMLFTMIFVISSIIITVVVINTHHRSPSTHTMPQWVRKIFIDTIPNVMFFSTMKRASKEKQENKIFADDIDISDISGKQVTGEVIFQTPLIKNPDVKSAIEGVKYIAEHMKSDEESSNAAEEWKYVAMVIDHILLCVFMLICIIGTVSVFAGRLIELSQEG
UniProt P58154, residues 20-229: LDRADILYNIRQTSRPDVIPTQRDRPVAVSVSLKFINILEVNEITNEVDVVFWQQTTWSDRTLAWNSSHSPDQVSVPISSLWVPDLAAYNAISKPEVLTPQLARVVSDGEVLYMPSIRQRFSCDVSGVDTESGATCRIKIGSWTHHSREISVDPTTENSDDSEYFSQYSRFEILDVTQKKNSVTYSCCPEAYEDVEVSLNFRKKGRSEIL
UniProt P60615, residues 22-95: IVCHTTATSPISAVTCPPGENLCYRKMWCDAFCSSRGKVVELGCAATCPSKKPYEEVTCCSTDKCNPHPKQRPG

Assay [1] addresses human neuronal α7 nicotinic acetylcholine receptor (human) (UniProt P36544). In words: radioligand binding; only the binder purified.
Assay [2] addresses T. californica muscle-type nicotinic acetylcholine receptor (T. californica) (UniProt P02710). In words: radioligand binding; only the binder purified.
For assay [3], the target named is acetylcholine-binding protein from L. stagnalis (L. stagnalis) (UniProt P58154). In words: radioligand binding; both purified.

No constants are given. Whether binding was seen depends on the method and setting. Some entries that bind do so weakly or less than the wild type.

Regarding “Mono-iodinated (3-[125I]iodotyrosyl54)-α-bungarotoxin (from UniProt P60615 22-95) (ligand)”, the binding entry in assay [1] is given as “binds”.

B1: PLA2 Vur-PL2 from V. ursinii venom (enzyme)
chain: NLYQFGKMIRYKTGKSALLSYSDYGCYCGWGGQGKPKDATDRCCFVHDCCYGRVNGCDPKLTIYSYSFENGDIVCGGDDSCKRAVCECDRVAAICFGENLNTYDKKYKNYPSSQCTETEQC
Turning to B1, the binding result is on record as “no binding (tested: >100 µM)” in assay [2] and “no binding (tested: >30 µM)” in assay [3].
